The targets with a hit were mostly taken out for another list; the other results follow. The data scatter; read single values as rough. The entries are a selection whose mix differs from that of the whole data set.
What follows are targets tested with COC(=O)/C=C/c1ccccc1 [methyl cinnamate] (assay: log2 ratio of iodoacetamide-alkyne labeling of the cysteine site, DMSO over compound (competition); higher = stronger covalent engagement of the cysteine by the compound, active = 1 or more). Conditions: 500 µM; treatment time 1 h; system: HEK293T cell lysate.
Procedure, shortened: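 After 1 h at ambient temperature with vehicle or electrophile (500 µM), HEK293T lysate (2 mg/mL) was labelled for 1 h with iodoacetamide alkyne and clicked to sCIP-TMT reagents. Pooled samples were trypsin-digested overnight at 37 °C, streptavidin-enriched, acid-eluted and analysed by Orbitrap Eclipse LC-MS/MS with FAIMS, then quantified in FragPipe over three replicates with duplicate channels. A cysteine's log2 competition ratio is its mean control-channel over mean compound-channel reporter intensity. Cysteines quantified in only one replicate were not included.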

Sequences of proteins named here, by UniProt entry; tags and fusion partners are left off. A change or cut given only in a name is not applied to a line headed by its entry.
UniProt P42702: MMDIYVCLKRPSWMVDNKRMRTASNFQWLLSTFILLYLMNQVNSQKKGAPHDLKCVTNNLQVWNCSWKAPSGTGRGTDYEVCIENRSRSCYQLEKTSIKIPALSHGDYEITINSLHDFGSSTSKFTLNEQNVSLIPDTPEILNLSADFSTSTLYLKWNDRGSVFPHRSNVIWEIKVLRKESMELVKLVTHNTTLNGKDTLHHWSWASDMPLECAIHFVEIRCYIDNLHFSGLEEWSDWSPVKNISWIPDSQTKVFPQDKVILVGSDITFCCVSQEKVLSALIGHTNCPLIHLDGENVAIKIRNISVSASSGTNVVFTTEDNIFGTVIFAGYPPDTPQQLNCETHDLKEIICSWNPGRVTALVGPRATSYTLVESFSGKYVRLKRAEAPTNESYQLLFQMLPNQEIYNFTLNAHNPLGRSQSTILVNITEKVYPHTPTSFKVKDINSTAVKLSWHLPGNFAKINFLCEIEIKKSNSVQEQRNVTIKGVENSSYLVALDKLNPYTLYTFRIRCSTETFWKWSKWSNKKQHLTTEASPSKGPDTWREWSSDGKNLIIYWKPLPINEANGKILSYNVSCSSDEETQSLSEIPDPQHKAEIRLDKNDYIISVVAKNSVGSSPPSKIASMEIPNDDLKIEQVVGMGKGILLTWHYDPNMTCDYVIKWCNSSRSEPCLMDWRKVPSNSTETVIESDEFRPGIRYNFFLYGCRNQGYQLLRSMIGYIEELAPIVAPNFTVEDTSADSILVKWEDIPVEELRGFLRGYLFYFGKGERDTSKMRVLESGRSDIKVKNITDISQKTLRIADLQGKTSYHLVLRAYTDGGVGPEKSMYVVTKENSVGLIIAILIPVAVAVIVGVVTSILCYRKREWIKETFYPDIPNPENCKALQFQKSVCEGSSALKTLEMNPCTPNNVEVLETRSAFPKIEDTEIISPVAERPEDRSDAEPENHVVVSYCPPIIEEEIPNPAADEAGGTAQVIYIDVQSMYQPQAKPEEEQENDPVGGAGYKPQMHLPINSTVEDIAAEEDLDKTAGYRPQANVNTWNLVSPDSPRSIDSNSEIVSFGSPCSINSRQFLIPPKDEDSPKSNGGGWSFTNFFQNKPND
UniProt P31153, whole entry, looked up: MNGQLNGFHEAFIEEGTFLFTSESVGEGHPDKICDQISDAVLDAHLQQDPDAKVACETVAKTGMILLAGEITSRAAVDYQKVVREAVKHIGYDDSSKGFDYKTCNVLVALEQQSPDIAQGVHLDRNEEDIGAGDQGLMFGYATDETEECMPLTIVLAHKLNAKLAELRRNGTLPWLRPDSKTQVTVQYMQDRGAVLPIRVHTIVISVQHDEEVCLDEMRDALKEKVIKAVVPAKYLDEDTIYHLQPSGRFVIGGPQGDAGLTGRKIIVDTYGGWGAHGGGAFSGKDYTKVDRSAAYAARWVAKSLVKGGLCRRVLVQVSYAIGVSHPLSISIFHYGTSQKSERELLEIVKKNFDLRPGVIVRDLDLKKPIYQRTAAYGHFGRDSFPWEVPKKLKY
UniProt P31483: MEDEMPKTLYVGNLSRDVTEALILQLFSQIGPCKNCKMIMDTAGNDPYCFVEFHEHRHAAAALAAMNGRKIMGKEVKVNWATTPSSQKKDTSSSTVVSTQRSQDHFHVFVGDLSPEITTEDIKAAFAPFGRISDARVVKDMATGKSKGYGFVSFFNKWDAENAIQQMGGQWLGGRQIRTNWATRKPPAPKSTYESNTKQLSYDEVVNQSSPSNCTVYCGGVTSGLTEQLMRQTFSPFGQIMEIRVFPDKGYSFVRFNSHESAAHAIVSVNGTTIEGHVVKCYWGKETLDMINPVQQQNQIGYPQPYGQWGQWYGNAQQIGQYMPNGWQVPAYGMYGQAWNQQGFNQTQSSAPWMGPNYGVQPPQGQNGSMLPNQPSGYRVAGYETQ
UniProt P34949: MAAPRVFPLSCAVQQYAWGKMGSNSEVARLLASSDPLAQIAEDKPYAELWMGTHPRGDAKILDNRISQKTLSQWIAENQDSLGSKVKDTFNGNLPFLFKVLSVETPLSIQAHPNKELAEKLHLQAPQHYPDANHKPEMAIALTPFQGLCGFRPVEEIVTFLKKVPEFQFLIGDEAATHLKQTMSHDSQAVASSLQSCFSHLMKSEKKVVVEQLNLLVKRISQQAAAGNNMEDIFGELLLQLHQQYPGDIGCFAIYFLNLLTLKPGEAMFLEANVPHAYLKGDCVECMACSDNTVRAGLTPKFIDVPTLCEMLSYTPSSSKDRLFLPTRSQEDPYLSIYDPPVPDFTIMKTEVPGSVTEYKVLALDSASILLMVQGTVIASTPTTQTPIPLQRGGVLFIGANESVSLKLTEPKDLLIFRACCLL
UniProt P35611: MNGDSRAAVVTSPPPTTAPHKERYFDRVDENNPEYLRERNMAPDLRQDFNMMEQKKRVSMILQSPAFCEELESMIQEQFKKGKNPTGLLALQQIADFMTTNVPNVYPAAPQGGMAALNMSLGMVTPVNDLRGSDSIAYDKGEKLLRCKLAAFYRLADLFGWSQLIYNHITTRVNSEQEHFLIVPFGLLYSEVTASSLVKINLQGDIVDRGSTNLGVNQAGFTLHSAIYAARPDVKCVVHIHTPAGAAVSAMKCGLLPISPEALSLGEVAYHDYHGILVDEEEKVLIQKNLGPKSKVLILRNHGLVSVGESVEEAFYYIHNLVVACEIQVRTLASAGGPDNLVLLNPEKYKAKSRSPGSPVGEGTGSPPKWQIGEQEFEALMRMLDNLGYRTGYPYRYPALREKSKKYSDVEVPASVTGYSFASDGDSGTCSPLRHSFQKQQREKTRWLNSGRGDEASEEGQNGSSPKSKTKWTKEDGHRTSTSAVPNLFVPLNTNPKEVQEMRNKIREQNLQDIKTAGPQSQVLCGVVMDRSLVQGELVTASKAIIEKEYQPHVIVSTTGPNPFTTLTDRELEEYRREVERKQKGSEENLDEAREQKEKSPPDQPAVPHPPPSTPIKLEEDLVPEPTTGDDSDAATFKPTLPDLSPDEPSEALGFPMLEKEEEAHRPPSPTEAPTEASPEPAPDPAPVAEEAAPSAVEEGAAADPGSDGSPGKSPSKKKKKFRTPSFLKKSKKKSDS
UniProt P40424: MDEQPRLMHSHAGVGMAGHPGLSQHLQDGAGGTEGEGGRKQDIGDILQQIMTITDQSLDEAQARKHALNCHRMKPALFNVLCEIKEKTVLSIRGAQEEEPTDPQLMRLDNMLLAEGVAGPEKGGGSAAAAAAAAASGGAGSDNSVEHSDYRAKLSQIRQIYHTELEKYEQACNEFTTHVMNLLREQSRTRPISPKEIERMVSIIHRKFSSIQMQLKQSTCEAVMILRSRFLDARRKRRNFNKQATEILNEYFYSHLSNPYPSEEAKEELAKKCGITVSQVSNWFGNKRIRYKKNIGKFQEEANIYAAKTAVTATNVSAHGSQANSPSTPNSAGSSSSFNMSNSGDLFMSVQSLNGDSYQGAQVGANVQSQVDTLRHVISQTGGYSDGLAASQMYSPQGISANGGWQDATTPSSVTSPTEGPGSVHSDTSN
UniProt P36776: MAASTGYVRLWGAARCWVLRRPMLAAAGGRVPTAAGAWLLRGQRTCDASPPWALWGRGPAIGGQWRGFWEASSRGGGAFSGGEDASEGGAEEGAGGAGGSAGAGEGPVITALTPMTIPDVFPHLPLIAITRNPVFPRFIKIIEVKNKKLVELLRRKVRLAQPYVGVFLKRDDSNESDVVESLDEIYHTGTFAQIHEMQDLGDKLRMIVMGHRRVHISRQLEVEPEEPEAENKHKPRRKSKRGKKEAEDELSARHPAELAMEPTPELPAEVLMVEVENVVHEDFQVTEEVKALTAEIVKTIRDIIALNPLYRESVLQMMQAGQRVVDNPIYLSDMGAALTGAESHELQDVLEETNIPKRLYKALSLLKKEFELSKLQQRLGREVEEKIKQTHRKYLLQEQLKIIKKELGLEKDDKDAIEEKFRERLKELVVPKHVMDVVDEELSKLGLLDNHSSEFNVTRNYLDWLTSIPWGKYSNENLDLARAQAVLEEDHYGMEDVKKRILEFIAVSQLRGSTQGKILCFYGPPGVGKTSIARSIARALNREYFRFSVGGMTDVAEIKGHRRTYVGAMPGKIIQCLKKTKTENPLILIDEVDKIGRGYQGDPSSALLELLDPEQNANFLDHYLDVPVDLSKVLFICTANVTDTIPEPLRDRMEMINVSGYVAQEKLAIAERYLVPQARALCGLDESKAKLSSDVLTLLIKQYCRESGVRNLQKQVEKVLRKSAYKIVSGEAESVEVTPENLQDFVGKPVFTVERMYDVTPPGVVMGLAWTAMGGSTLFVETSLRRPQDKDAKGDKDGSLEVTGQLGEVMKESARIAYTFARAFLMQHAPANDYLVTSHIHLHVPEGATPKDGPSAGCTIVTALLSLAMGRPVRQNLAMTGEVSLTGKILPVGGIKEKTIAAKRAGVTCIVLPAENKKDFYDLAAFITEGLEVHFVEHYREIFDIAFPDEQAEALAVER
UniProt P33981: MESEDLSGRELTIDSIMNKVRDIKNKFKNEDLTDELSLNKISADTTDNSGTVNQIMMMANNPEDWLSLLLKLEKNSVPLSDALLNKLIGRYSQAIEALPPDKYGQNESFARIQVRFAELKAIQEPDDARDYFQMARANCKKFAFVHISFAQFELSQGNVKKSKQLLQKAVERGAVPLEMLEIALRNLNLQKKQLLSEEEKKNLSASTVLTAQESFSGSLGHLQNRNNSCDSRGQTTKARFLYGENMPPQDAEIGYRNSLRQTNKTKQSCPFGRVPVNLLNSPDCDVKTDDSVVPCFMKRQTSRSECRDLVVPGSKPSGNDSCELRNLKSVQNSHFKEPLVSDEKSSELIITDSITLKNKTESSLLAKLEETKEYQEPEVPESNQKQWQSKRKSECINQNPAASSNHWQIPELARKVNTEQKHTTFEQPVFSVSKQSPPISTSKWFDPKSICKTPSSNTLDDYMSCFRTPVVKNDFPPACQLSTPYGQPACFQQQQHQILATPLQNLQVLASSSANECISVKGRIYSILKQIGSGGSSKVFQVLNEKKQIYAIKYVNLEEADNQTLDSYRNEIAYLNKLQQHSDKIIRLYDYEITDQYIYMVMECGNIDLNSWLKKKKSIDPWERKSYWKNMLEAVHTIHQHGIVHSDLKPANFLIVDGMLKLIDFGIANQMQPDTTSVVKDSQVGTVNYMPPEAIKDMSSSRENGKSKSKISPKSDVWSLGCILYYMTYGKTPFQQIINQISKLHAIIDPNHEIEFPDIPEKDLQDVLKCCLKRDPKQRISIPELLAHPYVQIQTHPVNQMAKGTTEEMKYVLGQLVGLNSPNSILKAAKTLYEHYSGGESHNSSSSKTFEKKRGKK
UniProt P31040: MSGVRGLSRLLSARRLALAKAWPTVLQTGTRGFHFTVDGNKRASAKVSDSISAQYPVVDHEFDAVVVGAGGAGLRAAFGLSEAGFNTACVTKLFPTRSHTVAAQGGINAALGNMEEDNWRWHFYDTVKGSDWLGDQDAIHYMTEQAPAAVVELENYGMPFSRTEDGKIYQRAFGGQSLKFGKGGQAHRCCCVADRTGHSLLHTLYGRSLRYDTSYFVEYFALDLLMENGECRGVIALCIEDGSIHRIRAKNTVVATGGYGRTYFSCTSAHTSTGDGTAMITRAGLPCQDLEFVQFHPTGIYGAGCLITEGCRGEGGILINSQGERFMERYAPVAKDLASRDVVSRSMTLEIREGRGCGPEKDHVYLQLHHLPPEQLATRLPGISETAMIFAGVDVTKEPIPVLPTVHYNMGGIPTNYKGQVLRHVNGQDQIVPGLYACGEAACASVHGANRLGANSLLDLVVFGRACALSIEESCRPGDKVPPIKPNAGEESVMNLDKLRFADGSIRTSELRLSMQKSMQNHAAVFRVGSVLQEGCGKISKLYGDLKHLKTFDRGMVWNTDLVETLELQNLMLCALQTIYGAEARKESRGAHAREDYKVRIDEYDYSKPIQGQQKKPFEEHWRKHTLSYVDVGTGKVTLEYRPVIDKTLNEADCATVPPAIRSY
UniProt P30291: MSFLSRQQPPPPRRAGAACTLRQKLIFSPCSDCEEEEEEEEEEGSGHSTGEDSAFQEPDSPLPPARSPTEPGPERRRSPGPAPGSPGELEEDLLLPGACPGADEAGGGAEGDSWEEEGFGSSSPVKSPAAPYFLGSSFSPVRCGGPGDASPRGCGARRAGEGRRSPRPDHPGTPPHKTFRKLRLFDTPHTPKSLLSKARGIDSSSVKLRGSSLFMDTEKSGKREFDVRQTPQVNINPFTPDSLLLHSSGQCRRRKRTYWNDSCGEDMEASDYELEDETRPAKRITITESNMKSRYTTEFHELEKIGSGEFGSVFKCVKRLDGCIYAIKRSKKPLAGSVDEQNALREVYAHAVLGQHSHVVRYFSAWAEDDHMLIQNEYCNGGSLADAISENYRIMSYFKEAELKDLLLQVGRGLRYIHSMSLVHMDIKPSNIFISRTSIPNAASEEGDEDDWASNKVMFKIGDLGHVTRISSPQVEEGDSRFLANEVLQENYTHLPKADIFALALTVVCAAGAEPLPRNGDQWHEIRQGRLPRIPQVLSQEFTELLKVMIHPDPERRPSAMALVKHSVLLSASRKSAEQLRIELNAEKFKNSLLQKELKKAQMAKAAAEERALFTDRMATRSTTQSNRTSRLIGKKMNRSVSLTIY

log2 ratio of iodoacetamide-alkyne labeling, inactive:
LIFR C1061 (UniProt P42702) 0.483, SHMT1 C110 (UniProt P34896) -0.0346, MAT2A C214 (UniProt P31153) 0.0246, SHMT1 C96 (UniProt P34896) -0.00593, RPL13A C38 (UniProt P40429) 0.0615, TIA1 C33 (UniProt P31483) 0.194, TMPO C561 (UniProt P42166) 0.0482, CDC25C C42 (UniProt P30307) 0.326, MPI C289 (UniProt P34949) 0.299, ADD1 C253 (UniProt P35611) -0.0653, LRPPRC C863 (UniProt P42704) -0.167, P41778 C172 (UniProt P40424) -0.389, LONP1 C704 (UniProt P36776) -0.12, TTK C322 (UniProt P33981) 0.432, TTK C465 (UniProt P33981) 0.0813, TMPO C363 (UniProt P42167) 0.187, TTK C284 (UniProt P33981) 0.389, SDHA C311 (UniProt P31040) 0.0756, WEE1 C251 (UniProt P30291) 0.194, SDHA C305 (UniProt P31040) 0.0756, LRPPRC C571 (UniProt P42704) 0.0791
